{"sequences": {"note": "Sequences of proteins named here, by UniProt entry; tags and fusion partners are left off. A change or cut given only in a name is not applied to a line headed by its entry.", "UniProt P08246": "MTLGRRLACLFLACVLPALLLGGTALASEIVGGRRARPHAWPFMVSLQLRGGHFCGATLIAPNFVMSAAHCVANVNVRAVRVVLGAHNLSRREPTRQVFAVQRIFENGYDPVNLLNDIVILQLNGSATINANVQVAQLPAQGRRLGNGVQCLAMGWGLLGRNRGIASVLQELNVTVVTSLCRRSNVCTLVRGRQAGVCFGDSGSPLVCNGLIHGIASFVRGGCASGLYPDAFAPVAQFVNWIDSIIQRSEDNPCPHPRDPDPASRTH"}, "source": "paper PMC7864068", "about": "“α2-Macroglobulin-like protein 1 can conjugate and inhibit proteases through their hydroxyl groups, because of an enhanced reactivity of its thiol ester” (The Journal of Biological Chemistry, 2021)", "binders": {"B1": {"name": "Human α2-macroglobulin-like protein 1 (A2ML1), recombinant wild type (natural protein, UniProt A8K2U0-1 18-1454, looked up)", "chain": "EELPNYLVTLPARLNFPSVQKVCLDLSPGYSDVKFTVTLETKDKTQKLLEYSGLKKRHLHCISFLVPPPAGGTEEVATIRVSGVGNNISFEEKKKVLIQRQGNGTFVQTDKPLYTPGQQVYFRIVTMDSNFVPVNDKYSMVELQDPNSNRIAQWLEVVPEQGIVDLSFQLAPEAMLGTYTVAVAEGKTFGTFSVEEYVLPKFKVEVVEPKELSTVQESFLVKICCRYTYGKPMLGAVQVSVCQKANTYWYREVEREQLPDKCRNLSGQTDKTGCFSAPVDMATFDLIGYAYSHQINIVATVVEEGTGVEANATQNIYISPQMGSMTFEDTSNFYHPNFPFSGKIRVRGHDDSFLKNHLVFLVIYGTNGTFNQTLVTDNNGLAPFTLETSGWNGTDVSLEGKFQMEDLVYNPEQVPRYYQNAYLHLRPFYSTTRSFLGIHRLNGPLKCGQPQEVLVDYYIDPADASPDQEISFSYYLIGKGSLVMEGQKHLNSKKKGLKASFSLSLTFTSRLAPDPSLVIYAIFPSGGVVADKIQFSVEMCFDNQVSLGFSPSQQLPGAEVELQLQAAPGSLCALRAVDESVLLLRPDRELSNRSVYGMFPFWYGHYPYQVAEYDQCPVSGPWDFPQPLIDPMPQGHSSQRSIIWRPSFSEGTDLFSFFRDVGLKILSNAKIKKPVDCSHRSPEYSTAMGAGGGHPEAFESSTPLHQAEDSQVRQYFPETWLWDLFPIGNSGKEAVHVTVPDAITEWKAMSFCTSQSRGFGLSPTVGLTAFKPFFVDLTLPYSVVRGESFRLTATIFNYLKDCIRVQTDLAKSHEYQLESWADSQTSSCLCADDAKTHHWNITAVKLGHINFTISTKILDSNEPCGGQKGFVPQKGRSDTLIKPVLVKPEGVLVEKTHSSLLCPKGKVASESVSLELPVDIVPDSTKAYVTVLGDIMGTALQNLDGLVQMPSGCGEQNMVLFAPIIYVLQYLEKAGLLTEEIRSRAVGFLEIGYQKELMYKHSNGSYSAFGERDGNGNTWLTAFVTKCFGQAQKFIFIDPKNIQDALKWMAGNQLPSGCYANVGNLLHTAMKGGVDDEVSLTAYVTAALLEMGKDVDDPMVSQGLRCLKNSATSTTNLYTQALLAYIFSLAGEMDIRNILLKQLDQQAIISGESIYWSQKPTPSSNASPWSEPAAVDVELTAYALLAQLTKPSLTQKEIAKATSIVAWLAKQHNAYGGFSSTQDTVVALQALAKYATTAYMPSEEINLVVKSTENFQRTFNIQSVNRLVFQQDTLPNVPGMYTLEASGQGCVYVQTVLRYNILPPTNMKTFSLSVEIGKARCEQPTSPRSLTLTIHTSYVGSRSSSNMAIVEVKMLSGFSPMEGTNQLLLQQPLVKKVEFGTDTLNIYLDELIKNTQTYTFTISQSVLVTNLKPATIKVYDYYLPDEQATIQYSDPCE", "modifications": "internal thiol ester in which Gln-973 participates"}}, "molecular_target": "Human neutrophil elastase (HNE) (human) (UniProt P08246)", "test": "reducing SDS-PAGE of covalent conjugation products + Edman degradation and LC-MS/MS of bands; A2ML1 digested with HNE, CatG (up to 1:1 molar ratio protease:A2ML1, HBS with and without 50 mM BAPN, 15 min 37°C, stopped with 2 mM PMSF) or GluC (conditions not told); Fig. S2; both purified", "note": "No constants are given. Whether binding was seen depends on the method and setting. A result given as binding can be weak or reduced; the word gives no strength."}
{"binder": "B1", "values": [{"measurement": "binding", "result": "binds"}]}
